The list shows a part of the results.
Columns and labels:
Assay in all cases: glycan array binding signal (z-score within array); higher = stronger binding
Settings in all cases: glycan notation: IUPAC condensed, linker removed
[1] = target: Fuc(a1-2)[Gal(a1-3)]Gal(b1-4)GlcNAc(b1-2)Man(a1-3)[Fuc(a1-2)[Gal(a1-3)]Gal(b1-4)GlcNAc(b1-2)Man(a1-6)]Man(b1-4)GlcNAc(b1-4)[Fuc(a1-6)]GlcNAc
Summary of the method: (§1)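 The binding signal is a Z-score computed within each array and averaged over linkers. Arrays of the same protein sequence at different concentrations or buffers were also averaged together. Data originate from 3228 arrays in the Consortium for Functional Glycomics database, kept only where the protein sequence was available.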

[2] = target: Fuc(a1-2)[Gal(a1-3)]Gal(b1-4)GlcNAc(b1-3)GalNAc
Summary of the method: as §1

[3] = target: Fuc(a1-2)[Gal(a1-3)]Gal(b1-4)GlcNAc(b1-6)GalNAc
Summary of the method: as §1

[4] = target: Fuc(a1-2)[Gal(a1-3)]Gal(b1-4)[Fuc(a1-3)]Glc
Summary of the method: as §1

[5] = target: Fuc(a1-2)[Gal(a1-3)]Gal(b1-4)[Fuc(a1-3)]GlcNAc
Summary of the method: as §1

[6] = target: Fuc(a1-2)[Gal(a1-3)]Gal(b1-4)[Fuc(a1-3)]GlcNAc(b1-3)GalNAc
Summary of the method: as §1

[7] = target: Fuc(a1-2)[Gal(a1-4)]Gal(b1-4)GlcNAc
Summary of the method: as §1

[8] = target: Fuc(a1-2)[GalNAc(a1-3)]Gal
Summary of the method: as §1

[9] = target: Fuc(a1-2)[GalNAc(a1-3)]Gal(b1-3)GalNAc(a1-3)[Fuc(a1-2)]Gal(b1-4)GlcNAc
Summary of the method: as §1

[10] = target: Fuc(a1-2)[GalNAc(a1-3)]Gal(b1-3)GalNAc(b1-3)Gal(a1-4)Gal(b1-4)Glc
Summary of the method: as §1

[11] = target: Fuc(a1-2)[GalNAc(a1-3)]Gal(b1-3)GlcNAc
Summary of the method: as §1

[12] = target: Fuc(a1-2)[GalNAc(a1-3)]Gal(b1-3)GlcNAc(b1-2)Man(a1-3)[Fuc(a1-2)[GalNAc(a1-3)]Gal(b1-3)GlcNAc(b1-2)Man(a1-6)]Man(b1-4)GlcNAc(b1-4)GlcNAc
Summary of the method: as §1

[13] = target: Fuc(a1-2)[GalNAc(a1-3)]Gal(b1-3)GlcNAc(b1-2)Man(a1-3)[Fuc(a1-2)[GalNAc(a1-3)]Gal(b1-3)GlcNAc(b1-2)Man(a1-6)]Man(b1-4)GlcNAc(b1-4)[Fuc(a1-6)]GlcNAc
Summary of the method: as §1

[14] = target: Fuc(a1-2)[GalNAc(a1-3)]Gal(b1-3)GlcNAc(b1-3)GalNAc
Summary of the method: as §1

[15] = target: Fuc(a1-2)[GalNAc(a1-3)]Gal(b1-3)GlcNAc(b1-6)GalNAc
Summary of the method: as §1

[16] = target: Fuc(a1-2)[GalNAc(a1-3)]Gal(b1-4)Glc
Summary of the method: as §1

[17] = target: Fuc(a1-2)[GalNAc(a1-3)]Gal(b1-4)GlcNAc
Summary of the method: as §1

[18] = target: Fuc(a1-2)[GalNAc(a1-3)]Gal(b1-4)GlcNAc(b1-2)Man
Summary of the method: as §1

[19] = target: Fuc(a1-2)[GalNAc(a1-3)]Gal(b1-4)GlcNAc(b1-2)Man(a1-3)[Fuc(a1-2)[GalNAc(a1-3)]Gal(b1-4)GlcNAc(b1-2)Man(a1-6)]Man(b1-4)GlcNAc(b1-4)GlcNAc
Summary of the method: as §1

[20] = target: Fuc(a1-2)[GalNAc(a1-3)]Gal(b1-4)GlcNAc(b1-2)Man(a1-3)[Fuc(a1-2)[GalNAc(a1-3)]Gal(b1-4)GlcNAc(b1-2)Man(a1-6)]Man(b1-4)GlcNAc(b1-4)[Fuc(a1-6)]GlcNAc
Summary of the method: as §1

[21] = target: Fuc(a1-2)[GalNAc(a1-3)]Gal(b1-4)GlcNAc(b1-3)Gal(b1-4)GlcNAc
Summary of the method: as §1

[22] = target: Fuc(a1-2)[GalNAc(a1-3)]Gal(b1-4)GlcNAc(b1-3)Gal(b1-4)GlcNAc(b1-3)Gal(b1-4)GlcNAc
Summary of the method: as §1

[23] = target: Fuc(a1-2)[GalNAc(a1-3)]Gal(b1-4)GlcNAc(b1-3)GalNAc
Summary of the method: as §1

[24] = target: Fuc(a1-2)[GalNAc(a1-3)]Gal(b1-4)GlcNAc(b1-3)[Fuc(a1-2)[GalNAc(a1-3)]Gal(b1-4)GlcNAc(b1-6)]GalNAc
Summary of the method: as §1

[25] = target: Fuc(a1-2)[GalNAc(a1-3)]Gal(b1-4)GlcNAc(b1-6)GalNAc
Summary of the method: as §1

[26] = target: Fuc(a1-2)[GalNAc(a1-3)]Gal(b1-4)[Fuc(a1-3)]GlcNAc
Summary of the method: as §1

[27] = target: Fuc(a1-2)[GalNAc(a1-3)]Gal(b1-4)[Fuc(a1-3)]GlcNAc(b1-3)GalNAc
Summary of the method: as §1

[28] = target: Fuc(a1-2)[GalNAc(a1-4)]Gal(b1-4)GlcNAc
Summary of the method: as §1

[29] = target: Fuc(a1-2)[GalNAc(b1-3)]Gal
Summary of the method: as §1

Fuc(a1-3)GlcNAc = target: Fuc(a1-3)GlcNAc
Summary of the method: as §1

B1: GroEL (Clostridium difficile), Q18CT5 (protein)
chain: MAKEIKFSEETRRALEAGVNKLADTVKVTLGPKGRNVILDKKFGSPLITNDGVTIAKEIELEDRFENMGAQLVKEVATKTNDVAGDGTTTATVLAQAIIREGLKNVTAGANPILLRKGIQKAVTVAVEELKNQSRIVETQEAISQVASISAGDEEVGKLIAEAMEIVGKDGVITVEESQTMNTELDAVEGMQFDRGFVSAYMVTDVDKMEAVLNDPYILITDKKISNIQELLPVLEQIVQQGKKLLIIAEDVEGEALSTLVVNKLRGTFDVVAVKAPGFGDRRKEMLQDIAILTGAQVISEELGYDLKEADLSMLGRASSVKVTKESTTIVDGSGDKKAIEDRVTQIKHQVEQTTSDFDREKLMERLAKLAGGVAVVKVGAATEVELKERKLRIEDALNATRAAVEEGIVAGGGTAFVSVIPAIGTLIESLEGEVKLGAQIVKKALEEPLRQIAINAGLEGAVIVQNVVNSEAETGFDALNEKYVNMIEAGIVDPTKVSRSALQNAASIASTFLTTEAAVADLPEKEDAGMPGMGGGMPGMM
How did the “glycan array binding signal (z-score)” value [1] turn out when B1 was run?
The value was 1.21.

And the “glycan array binding signal (z-score)” value [2]?
Its value is -1.04.

What about the “glycan array binding signal (z-score)” value [3] of the same binder?
The value was -0.714.

And the “glycan array binding signal (z-score)” value [4]?
The value was 1.5.

What about the “glycan array binding signal (z-score)” value [5] of the same binder?
Its value is 0.041.

And the “glycan array binding signal (z-score)” value [6]?
The value was -0.138.

What about the “glycan array binding signal (z-score)” value [7] of the same binder?
Its value is -0.022.

What about the “glycan array binding signal (z-score)” value [8] of the same binder?
The value was -0.259.

What about the “glycan array binding signal (z-score)” value [9] of the same binder?
The value was -0.987.

And the “glycan array binding signal (z-score)” value [10]?
The value was -0.088.

And the “glycan array binding signal (z-score)” value [11]?
The value was -0.462.

What about the “glycan array binding signal (z-score)” value [12] of the same binder?
Its value is -0.336.

And the “glycan array binding signal (z-score)” value [13]?
The value was 0.141.

What about the “glycan array binding signal (z-score)” value [14] of the same binder?
The value was 1.81.

What about the “glycan array binding signal (z-score)” value [15] of the same binder?
Its value is -0.924.

And the “glycan array binding signal (z-score)” value [16]?
The value was 0.487.

And the “glycan array binding signal (z-score)” value [17]?
Its value is 1.44.

And the “glycan array binding signal (z-score)” value [18]?
The value was -0.069.

What about the “glycan array binding signal (z-score)” value [19] of the same binder?
Its value is -0.978.

And the “glycan array binding signal (z-score)” value [20]?
Its value is -0.638.

What about the “glycan array binding signal (z-score)” value [21] of the same binder?
Its value is -0.401.

What about the “glycan array binding signal (z-score)” value [22] of the same binder?
The value was 0.136.

And the “glycan array binding signal (z-score)” value [23]?
Its value is 0.923.

And the “glycan array binding signal (z-score)” value [24]?
The value was -1.51.

What about the “glycan array binding signal (z-score)” value [25] of the same binder?
Its value is -1.27.

And the “glycan array binding signal (z-score)” value [26]?
Its value is -0.924.

And the “glycan array binding signal (z-score)” value [27]?
Its value is -0.583.

What about the “glycan array binding signal (z-score)” value [28] of the same binder?
The value was -0.396.

What about the “glycan array binding signal (z-score)” value [29] of the same binder?
Its value is -0.641.

And the “glycan array binding signal (z-score)” value (Fuc(a1-3)GlcNAc)?
Its value is 0.107.

— the supplement of paper PMC8728848
